The results in this text go back to doi:10.1101/410803.

Assay [1] concerns the target T1, FLAG-tagged A1CF (APOBEC1 Complementation Factor) (human) (UniProt Q9NQ94).
T1 sequence: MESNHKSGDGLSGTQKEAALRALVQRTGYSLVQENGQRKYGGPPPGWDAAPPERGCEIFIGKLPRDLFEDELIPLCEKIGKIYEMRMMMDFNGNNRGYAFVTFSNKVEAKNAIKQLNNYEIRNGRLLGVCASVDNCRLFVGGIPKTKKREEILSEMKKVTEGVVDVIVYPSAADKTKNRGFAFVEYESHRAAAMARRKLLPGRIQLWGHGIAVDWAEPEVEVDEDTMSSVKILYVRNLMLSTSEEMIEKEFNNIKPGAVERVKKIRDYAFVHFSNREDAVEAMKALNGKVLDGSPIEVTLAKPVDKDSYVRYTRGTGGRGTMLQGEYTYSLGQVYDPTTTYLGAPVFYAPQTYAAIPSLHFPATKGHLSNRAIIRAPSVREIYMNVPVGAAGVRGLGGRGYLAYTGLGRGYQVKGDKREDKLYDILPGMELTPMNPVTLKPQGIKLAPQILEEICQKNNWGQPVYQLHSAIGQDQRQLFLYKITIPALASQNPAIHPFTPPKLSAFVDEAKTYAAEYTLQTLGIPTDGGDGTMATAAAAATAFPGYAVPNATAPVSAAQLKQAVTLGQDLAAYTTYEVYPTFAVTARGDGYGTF
In words: co-IP.

The target in assay [2] is T2, FLAG-tagged APOBEC1 (wild type) (rat) (UniProt P38483).
T2 sequence: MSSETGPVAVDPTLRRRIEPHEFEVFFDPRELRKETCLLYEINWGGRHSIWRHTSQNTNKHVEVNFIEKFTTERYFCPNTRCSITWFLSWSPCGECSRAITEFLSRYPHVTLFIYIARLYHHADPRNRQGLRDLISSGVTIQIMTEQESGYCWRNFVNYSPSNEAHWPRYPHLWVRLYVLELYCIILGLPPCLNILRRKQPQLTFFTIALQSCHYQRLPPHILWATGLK
In words: co-IP.

Assay [3] concerns the target T3, untagged rat APOBEC1 (wild type) (rat) (UniProt P38483).
T3 sequence: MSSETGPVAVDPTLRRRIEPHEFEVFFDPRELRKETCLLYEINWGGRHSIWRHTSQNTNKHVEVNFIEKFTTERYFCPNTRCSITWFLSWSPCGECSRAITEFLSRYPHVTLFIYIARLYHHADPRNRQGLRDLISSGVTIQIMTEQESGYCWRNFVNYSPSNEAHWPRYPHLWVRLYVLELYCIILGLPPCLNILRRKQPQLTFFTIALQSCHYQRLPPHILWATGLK
Description: cross-linking.

For assay [4], the target named is rat APOBEC1 G227A mutant (untagged) (rat) (UniProt P38483). In words: cross-linking.
For assay [5], the target named is rat APOBEC1 L173Q mutant (rat) (UniProt P38483). In words: cross-linking.

Results are given in words; binding and its absence hold for the method and conditions named. Binding seen in cells or lysates may run through a third protein. Some entries that bind do so weakly or less than the wild type. For part of these data: Where a sequence is shown, tags or fusion partners need not be part of it.

B1: rat APOBEC1 L173A/G227A double mutant (untagged) (enzyme, UniProt P38483 1-229)
chain: MSSETGPVAVDPTLRRRIEPHEFEVFFDPRELRKETCLLYEINWGGRHSIWRHTSQNTNKHVEVNFIEKFTTERYFCPNTRCSITWFLSWSPCGECSRAITEFLSRYPHVTLFIYIARLYHHADPRNRQGLRDLISSGVTIQIMTEQESGYCWRNFVNYSPSNEAHWPRYPHAWVRLYVLELYCIILGLPPCLNILRRKQPQLTFFTIALQSCHYQRLPPHILWATALK
With B1, the binding entry in assay [1], in assay [2] and in assay [3] was “binds” each time.

B2: untagged rat APOBEC1 (wild type) (enzyme, UniProt P38483 1-229)
chain: MSSETGPVAVDPTLRRRIEPHEFEVFFDPRELRKETCLLYEINWGGRHSIWRHTSQNTNKHVEVNFIEKFTTERYFCPNTRCSITWFLSWSPCGECSRAITEFLSRYPHVTLFIYIARLYHHADPRNRQGLRDLISSGVTIQIMTEQESGYCWRNFVNYSPSNEAHWPRYPHLWVRLYVLELYCIILGLPPCLNILRRKQPQLTFFTIALQSCHYQRLPPHILWATGLK
As to B2, the binding result in assay [1] is “binds”.

B3: rat APOBEC1 G227A mutant (untagged) (enzyme, UniProt P38483 1-229)
chain: MSSETGPVAVDPTLRRRIEPHEFEVFFDPRELRKETCLLYEINWGGRHSIWRHTSQNTNKHVEVNFIEKFTTERYFCPNTRCSITWFLSWSPCGECSRAITEFLSRYPHVTLFIYIARLYHHADPRNRQGLRDLISSGVTIQIMTEQESGYCWRNFVNYSPSNEAHWPRYPHLWVRLYVLELYCIILGLPPCLNILRRKQPQLTFFTIALQSCHYQRLPPHILWATALK
B3: the binding entry in assay [1] and in assay [4] was “binds” throughout.

B4: EGFP-APOBEC1 chimera (enzyme, UniProt P38483 1-229)
chain: MSSETGPVAVDPTLRRRIEPHEFEVFFDPRELRKETCLLYEINWGGRHSIWRHTSQNTNKHVEVNFIEKFTTERYFCPNTRCSITWFLSWSPCGECSRAITEFLSRYPHVTLFIYIARLYHHADPRNRQGLRDLISSGVTIQIMTEQESGYCWRNFVNYSPSNEAHWPRYPHLWVRLYVLELYCIILGLPPCLNILRRKQPQLTFFTIALQSCHYQRLPPHILWATGLK
Take B4: in assay [1], the binding entry was “binds”.

B5: rat APOBEC1 L173A mutant (untagged) (enzyme, UniProt P38483 1-229)
chain: MSSETGPVAVDPTLRRRIEPHEFEVFFDPRELRKETCLLYEINWGGRHSIWRHTSQNTNKHVEVNFIEKFTTERYFCPNTRCSITWFLSWSPCGECSRAITEFLSRYPHVTLFIYIARLYHHADPRNRQGLRDLISSGVTIQIMTEQESGYCWRNFVNYSPSNEAHWPRYPHAWVRLYVLELYCIILGLPPCLNILRRKQPQLTFFTIALQSCHYQRLPPHILWATGLK
In the case of B5, in assay [1], the binding entry is “binds”.

B6: rat APOBEC1 L173Q mutant (enzyme, UniProt P38483 1-229)
chain: MSSETGPVAVDPTLRRRIEPHEFEVFFDPRELRKETCLLYEINWGGRHSIWRHTSQNTNKHVEVNFIEKFTTERYFCPNTRCSITWFLSWSPCGECSRAITEFLSRYPHVTLFIYIARLYHHADPRNRQGLRDLISSGVTIQIMTEQESGYCWRNFVNYSPSNEAHWPRYPHQWVRLYVLELYCIILGLPPCLNILRRKQPQLTFFTIALQSCHYQRLPPHILWATGLK
Turning to B6, in assay [5], the binding entry is listed as “binds”.
